Laboratory results as given in patent US20070275911A1 (priority 2003, published 2007).

Experiment: general procedure: Fmoc solid-phase peptide synthesis; polystyrene resin preloaded with Fmoc hydroxylamine ether tether; TBTU/HOBT
Conditions: whole synthesis, scale 0.25 mmol

Substance: Cys-Asn-Gly-Arg-Cys
- crude mass: 120 mg
